# Reference: article PMC8881609
# Results are given in words; binding and its absence hold for the method and conditions named. For some assays here: In cells and extracts the contact can be indirect. Some binding calls cover weakened binding; strength is not graded here. Where a sequence is shown, tags or fusion partners need not be part of it.
# T1: TRIM31-Flag WT (human tripartite motif-containing protein 31, E3 ubiquitin ligase) (human) (UniProt Q9BZY9)
# T1 sequence: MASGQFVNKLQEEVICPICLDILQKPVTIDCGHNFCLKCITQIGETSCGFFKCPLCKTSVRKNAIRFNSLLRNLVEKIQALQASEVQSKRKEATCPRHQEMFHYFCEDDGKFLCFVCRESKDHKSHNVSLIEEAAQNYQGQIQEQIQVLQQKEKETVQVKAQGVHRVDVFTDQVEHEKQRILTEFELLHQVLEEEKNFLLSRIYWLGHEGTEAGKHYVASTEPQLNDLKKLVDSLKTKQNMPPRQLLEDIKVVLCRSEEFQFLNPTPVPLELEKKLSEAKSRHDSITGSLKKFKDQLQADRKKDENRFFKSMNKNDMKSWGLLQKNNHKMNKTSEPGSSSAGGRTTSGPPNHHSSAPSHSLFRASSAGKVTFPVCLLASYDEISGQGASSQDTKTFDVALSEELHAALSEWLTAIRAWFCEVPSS
# T2: GST-tagged TRIM31 (TRIM31-HA-GST) (human) (UniProt Q9BZY9)
# T2 sequence: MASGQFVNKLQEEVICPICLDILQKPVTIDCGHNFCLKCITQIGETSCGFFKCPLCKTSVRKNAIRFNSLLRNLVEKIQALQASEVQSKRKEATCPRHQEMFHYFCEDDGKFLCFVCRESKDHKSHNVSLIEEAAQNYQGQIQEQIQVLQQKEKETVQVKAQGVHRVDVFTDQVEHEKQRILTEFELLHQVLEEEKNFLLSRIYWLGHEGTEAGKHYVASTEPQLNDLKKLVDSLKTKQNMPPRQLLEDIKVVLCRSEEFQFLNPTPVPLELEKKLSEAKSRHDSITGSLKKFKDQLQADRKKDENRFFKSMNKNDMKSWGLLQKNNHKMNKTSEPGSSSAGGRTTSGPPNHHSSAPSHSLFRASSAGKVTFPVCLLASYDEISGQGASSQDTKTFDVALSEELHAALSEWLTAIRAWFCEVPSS
# Experiments:
# [1] = target: T1, TRIM31-Flag WT (human tripartite motif-containing protein 31, E3 ubiquitin ligase) (human); experiment: co-IP; L02 cells transiently transfected with Flag- and HA-tagged vectors, 36 h; Pierce IP Lysis Buffer at 4 °C; Protein A/G magnetic agarose beads, indicated antibodies at 4 °C overnight; blots probed with anti-Flag or anti-HA
# [2] = target: T2, GST-tagged TRIM31 (TRIM31-HA-GST) (human); experiment: pull-down; GST fusion from Rosetta (DE3) E. coli extract on GST beads (4 °C, 1 h), then incubated 4 h with Flag-tagged protein prepared by immunoprecipitation; eluate blotted with anti-Flag; Pierce GST Protein Interaction Pull-Down Kit; both purified
Binder,binding [1],binding [2]
"RHBDF2-HA WT (human rhomboid 5 homolog 2) (protein, UniProt Q6PJF5 1-856) MASADKNGGSVSSVSSSRLQSRKPPNLSITIPPPEKETQAPGEQDSMLPEGFQNRRLKKSQPRTWAAHTTACPPSFLPKRKNPAYLKSVSLQEPRSRWQESSEKRPGFRRQASLSQSIRKGAAQWFGVSGDWEGQRQQWQRRSLHHCSMRYGRLKASCQRDLELPSQEAPSFQGTESPKPCKMPKIVDPLARGRAFRHPEEMDRPHAPHPPLTPGVLSLTSFTSVRSGYSHLPRRKRMSVAHMSLQAAAALLKGRSVLDATGQRCRVVKRSFAFPSFLEEDVVDGADTFDSSFFSKEEMSSMPDDVFESPPLSASYFRGIPHSASPVSPDGVQIPLKEYGRAPVPGPRRGKRIASKVKHFAFDRKKRHYGLGVVGNWLNRSYRRSISSTVQRQLESFDSHRPYFTYWLTFVHVIITLLVICTYGIAPVGFAQHVTTQLVLRNKGVYESVKYIQQENFWVGPSSIDLIHLGAKFSPCIRKDGQIEQLVLRERDLERDSGCCVQNDHSGCIQTQRKDCSETLATFVKWQDDTGPPMDKSDLGQKRTSGAVCHQDPRTCEEPASSGAHIWPDDITKWPICTEQARSNHTGFLHMDCEIKGRPCCIGTKGSCEITTREYCEFMHGYFHEEATLCSQVHCLDKVCGLLPFLNPEVPDQFYRLWLSLFLHAGVVHCLVSVVFQMTILRDLEKLAGWHRIAIIFILSGITGNLASAIFLPYRAEVGPAGSQFGLLACLFVELFQSWPLLERPWKAFLNLSAIVLFLFICGLLPWIDNIAHIFGFLSGLLLAFAFLPYITFGTSDKYRKRALILVSLLAFAGLFAALVLWLYIYPINWPWIEHLTCFPFTSRFCEKYELDQVLH",binds,–
"RHBDF2-Flag (protein, UniProt Q6PJF5 1-856) MASADKNGGSVSSVSSSRLQSRKPPNLSITIPPPEKETQAPGEQDSMLPEGFQNRRLKKSQPRTWAAHTTACPPSFLPKRKNPAYLKSVSLQEPRSRWQESSEKRPGFRRQASLSQSIRKGAAQWFGVSGDWEGQRQQWQRRSLHHCSMRYGRLKASCQRDLELPSQEAPSFQGTESPKPCKMPKIVDPLARGRAFRHPEEMDRPHAPHPPLTPGVLSLTSFTSVRSGYSHLPRRKRMSVAHMSLQAAAALLKGRSVLDATGQRCRVVKRSFAFPSFLEEDVVDGADTFDSSFFSKEEMSSMPDDVFESPPLSASYFRGIPHSASPVSPDGVQIPLKEYGRAPVPGPRRGKRIASKVKHFAFDRKKRHYGLGVVGNWLNRSYRRSISSTVQRQLESFDSHRPYFTYWLTFVHVIITLLVICTYGIAPVGFAQHVTTQLVLRNKGVYESVKYIQQENFWVGPSSIDLIHLGAKFSPCIRKDGQIEQLVLRERDLERDSGCCVQNDHSGCIQTQRKDCSETLATFVKWQDDTGPPMDKSDLGQKRTSGAVCHQDPRTCEEPASSGAHIWPDDITKWPICTEQARSNHTGFLHMDCEIKGRPCCIGTKGSCEITTREYCEFMHGYFHEEATLCSQVHCLDKVCGLLPFLNPEVPDQFYRLWLSLFLHAGVVHCLVSVVFQMTILRDLEKLAGWHRIAIIFILSGITGNLASAIFLPYRAEVGPAGSQFGLLACLFVELFQSWPLLERPWKAFLNLSAIVLFLFICGLLPWIDNIAHIFGFLSGLLLAFAFLPYITFGTSDKYRKRALILVSLLAFAGLFAALVLWLYIYPINWPWIEHLTCFPFTSRFCEKYELDQVLH",–,binds
